Assay: Radical polymerization, gel time
Format: physicochemical
Conditions: for Gel time: 30% monomer, 20% water, 49% ethanol, 1% 2,2′-azobis-(2-methylpropionamidine)-dihydrochloride, 65° C., time until a three-dimensional stable gel formed

Compound: C=CC(=O)NCCNC(=O)C=C [Example 1, ethylene bisacrylamide]
- Gel time: 1 min
- Reactivity (polymerizability) compared with glycerine dimethacrylate (judged by gel time): clearly more reactive

Compound: C=C(C)C(=O)NCCC(C)CC(C)(C)CNC(=O)C(=C)C (stereo not shown) [Example 5, 2,2,4-trimethylhexamethylene-1,6-bismethacrylamide]
- Gel time: 7 min

Compound: C=C(C)C(=O)NCCOC(=O)NCCCCCCNC(=O)OCCNC(=O)C(=C)C [Example 3, bis[2-(2-methyl-acrylamino)-ethoxycarbonyl]-hexamethylenediamine]
- Gel time: 6 min
